Eleven compounds from patent US10050214B2, “Near-ultraviolet stimulated light-emitting compound and production method for same” (NANO CMS CO., LTD., priority 2014, dated 2018) can be followed below.

SMILES strings stand for the structures.

Data set [1] can be described thus: Fluorescence discharged in the range 400~700 nm on 365 nm near-ultraviolet irradiation. Type of data set: physicochemical. Set-up: key to Fluorescence Intensity: −: not measured; +: very low; ++: low; +++: medium; ++++: high; +++++: very high. The note with it: 365 nm irradiation; for Fluorescence Intensity: emission 400~700 nm. The protocol: Further, the melting point was measured using the melting point measuring instrument (M5000, KRÜSS GmbH), by assuming that the phase change is at the point where the change in transmissivity reaches 20%. Solubility in organic solvents was measured with respect to eight product items.

Data set [2] in a line: Fluorescent intensity measurement with fluorescence spectrometer, 365 nm stimulation, solid phase. Type of data set: physicochemical. Details: key to Fluorescent Intensity (UV light 365 nm stimulated) Solid Phase: −: not measured; +: very low; ++: low; +++: medium; ++++: high; +++++: very high. The protocol: The obtained quinazolinone compound was irradiated with near-UV light in the wavelength of 365 nm, and the intensity of discharged fluorescence was measured. The fluorescent intensity was measured using a fluorescence spectrometer (DARSA-5000, PSI Co., Ltd.), under the condition of 365 nm stimulation wavelength, cumulative average of five-time measurements, and 1024×128 CCD sensor shape. In addition, measurement of residual fluorescent intensity after artificial light exposure was repeated identically according to ASTM G 154-06 Cycle 1 standard.

In the case of `O=c1[nH]c(-c2cc(Cl)ccc2O)nc2cc(Cl)ccc12` [Embodiment 6, 7-chloro-2-(5-chloro-2-hydroxyphenyl)quinazoline-4(3H)-on], in data set [1], the “Emmax (nm)” value is 527 nm and the “Fluorescence Intensity” value is “+++”. In data set [2], the “Fluorescent Color Solid Phase” value was “Yellow-green” and the “Fluorescent Intensity (UV light 365 nm stimulated) Solid Phase” value (shortened to “Fluorescent Intensity”) is “+++”.

Regarding `O=c1[nH]c(-c2ccc(Cl)cc2O)nc2ccccc12` [Embodiment 10, 2-(4-chloro-2-hydroxyphenyl)quinazoline-4(3H)-on], in data set [2], the “Fluorescent Color Solid Phase” value is listed as “Turquoise” and the “Fluorescent Intensity” value is “++++”.

Turning to `O=c1[nH]c(-c2cc(F)ccc2O)nc2ccccc12` [Embodiment 13, 2-(5-fluoro-2-hyroxyphenyl)quinazoline-4(3H)-on], in data set [2], the “Fluorescent Color Solid Phase” value is reported as “Green” and the “Fluorescent Intensity” value was “+++++”.

Turning to `O=c1[nH]c(-c2ccc(Cl)cc2O)nc2ccc(Cl)cc12` [Embodiment 11, 6-chloro-2-(4-chloro-2-hydroxyphenyl)quinazoline-4(3H)-on], in data set [1], the “Emmax (nm)” value was 490 nm and the “Fluorescence Intensity” value was “++++”. In data set [2], the “Fluorescent Color Solid Phase” value was “Turquoise” and the “Fluorescent Intensity” value is “++++”.

As to `O=c1[nH]c(-c2cc(Cl)ccc2O)nc2ccc(Cl)cc12` [Embodiment 5, 6-choloro-2-(5-chloro-2-hydroxyphenyl)quinazoline-4(3H)-on], in data set [2], the “Fluorescent Color Solid Phase” value is reported as “Yellow” and the “Fluorescent Intensity” value is on record as “++”.

With `COc1ccc(-c2nc3ccc(Cl)cc3c(=O)[nH]2)c(O)c1` [Embodiment 8, 6-chloro-2-(2-hydroxy-4-methoxyphenyl)quinazoline-4(3H)-on], in data set [2], the “Fluorescent Color Solid Phase” value is recorded as “Turquoise” and the “Fluorescent Intensity” value is reported as “++”.

Turning to `COc1ccc(-c2nc3ccccc3c(=O)[nH]2)c(O)c1` [Embodiment 7, 2-(2-hydroxy-4-methoxyphenyl)quinazoline-4-(3H)-on], in data set [2], the “Fluorescent Color Solid Phase” value is given as “Turquoise” and the “Fluorescent Intensity” value is given as “++”.

For `O=c1[nH]c(-c2ccc(Cl)cc2O)nc2cc(Cl)ccc12` [Embodiment 12, 7-chloro-2-(4-chloro-2-hydroxyphenyl)quinazoline-4(3H)-on], in data set [2], the “Fluorescent Color Solid Phase” value is “Turquoise” and the “Fluorescent Intensity” value is “+++”.

On to `O=c1[nH]c(-c2c(O)cccc2Cl)nc2ccccc12` [Embodiment 16, 2-(2-chloro-6-hyrdoxyphenyl)quinazoline-4(3H)-on], for which, in data set [2], the “Fluorescent Color Solid Phase” value is “Green” and the “Fluorescent Intensity” value was “++++”.

On to `O=c1[nH]c(-c2cc(Cl)ccc2O)nc2ccccc12` [Embodiment 4, 2-(5-chloro-2-hydroxyphenyl)quinazoline-4(3H)-on], for which, in data set [2], the “Fluorescent Color Solid Phase” value was “Green” and the “Fluorescent Intensity” value was “++++”.

Consider `O=c1[nH]c(-c2cccc(Cl)c2O)nc2ccccc12` [Embodiment 17, 2-(3-choloro-2-hydroxyphenyl)quinazoline-4(3H)-on], for which, in data set [2], the “Fluorescent Color Solid Phase” value is listed as “Green” and the “Fluorescent Intensity” value is recorded as “++++”.
